According to patent EP2077092A2, “System and Methods for Screening or Analyzing Targets” (Taipei Veterans General Hospital, priority 2007, dated 2009):
At least one compound was matched to its structure with a doubt left.

Test system: c-FLIPL
Assay: c-FLIP protein expression in fluoxetine-treated NSCs (Western analysis)
Format: cell-based, Sprague-Dawley rats
Details: FL-treated NSCs plus PI3-K inhibitor, 20, 50, and 100 M LY294002
Procedure: All animal used were treated in accordance with the Animal Care and Use Committee guideline at Taipei Veterans General Hospital. Adult Sprague-Dawley rats (8 weeks old, 250 g) were anesthetized with intraperitoneal phenobarbital (Sigma, USA). The location of their brains was mapped: then, the brain was surgically separated from the hippocampus region with the procedure. Tissues from the hippocampus of the adult SD rats were dissociated and incubated in Hank's balanced salt solution (HB'SS) containing collagenase (78 units/ml) and hyaluronidase (38 units/ml) for 10 mins at 37°C. The tissues were then mechanically dissected and placed in a trypsin solution (1.33 mg/ml) at 37°C for another 10 mins. Dissociated cells were then centrifuged at 150g for 5 mins. […] Viable cells were counted by trypan blue exclusion and plated as 5000 cells/200 µL per well in 96-well plates (Corning, Acton, MA) with no substrate pretreatment. […]
An avidin-biotin complex method was used for the immunohistochemical staining in the differentiated NSCs. […] Immunoreactive signals were detected with a mixture of biotinylated rabbit antimouse IgG and Fluoesave (Calbiochem, La Jolla, CA, USA) under immunofluorescent microscope (Olympus FV300).

## O=c1cc(N2CCOCC2)oc2c(-c3ccccc3)cccc12 [LY294002]
  c-FLIPL expression induced by FL: specifically inhibited
